In the supplement of paper PMC12595434, “Development of retinoid nuclear receptor pathway antagonists through targeting aldehyde dehydrogenase 1A3” (iScience, 2025):
Some of the results follow. Single values of this set are uncertain.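 Tm was set to 64 °C where no melting was found, and many curves are irregular.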

The chains behind the UniProt entries cited, without tags or fusion partners. Where a name states a change or a piece, a line headed by the entry shows the natural chain unless it says otherwise.
UniProt P20020: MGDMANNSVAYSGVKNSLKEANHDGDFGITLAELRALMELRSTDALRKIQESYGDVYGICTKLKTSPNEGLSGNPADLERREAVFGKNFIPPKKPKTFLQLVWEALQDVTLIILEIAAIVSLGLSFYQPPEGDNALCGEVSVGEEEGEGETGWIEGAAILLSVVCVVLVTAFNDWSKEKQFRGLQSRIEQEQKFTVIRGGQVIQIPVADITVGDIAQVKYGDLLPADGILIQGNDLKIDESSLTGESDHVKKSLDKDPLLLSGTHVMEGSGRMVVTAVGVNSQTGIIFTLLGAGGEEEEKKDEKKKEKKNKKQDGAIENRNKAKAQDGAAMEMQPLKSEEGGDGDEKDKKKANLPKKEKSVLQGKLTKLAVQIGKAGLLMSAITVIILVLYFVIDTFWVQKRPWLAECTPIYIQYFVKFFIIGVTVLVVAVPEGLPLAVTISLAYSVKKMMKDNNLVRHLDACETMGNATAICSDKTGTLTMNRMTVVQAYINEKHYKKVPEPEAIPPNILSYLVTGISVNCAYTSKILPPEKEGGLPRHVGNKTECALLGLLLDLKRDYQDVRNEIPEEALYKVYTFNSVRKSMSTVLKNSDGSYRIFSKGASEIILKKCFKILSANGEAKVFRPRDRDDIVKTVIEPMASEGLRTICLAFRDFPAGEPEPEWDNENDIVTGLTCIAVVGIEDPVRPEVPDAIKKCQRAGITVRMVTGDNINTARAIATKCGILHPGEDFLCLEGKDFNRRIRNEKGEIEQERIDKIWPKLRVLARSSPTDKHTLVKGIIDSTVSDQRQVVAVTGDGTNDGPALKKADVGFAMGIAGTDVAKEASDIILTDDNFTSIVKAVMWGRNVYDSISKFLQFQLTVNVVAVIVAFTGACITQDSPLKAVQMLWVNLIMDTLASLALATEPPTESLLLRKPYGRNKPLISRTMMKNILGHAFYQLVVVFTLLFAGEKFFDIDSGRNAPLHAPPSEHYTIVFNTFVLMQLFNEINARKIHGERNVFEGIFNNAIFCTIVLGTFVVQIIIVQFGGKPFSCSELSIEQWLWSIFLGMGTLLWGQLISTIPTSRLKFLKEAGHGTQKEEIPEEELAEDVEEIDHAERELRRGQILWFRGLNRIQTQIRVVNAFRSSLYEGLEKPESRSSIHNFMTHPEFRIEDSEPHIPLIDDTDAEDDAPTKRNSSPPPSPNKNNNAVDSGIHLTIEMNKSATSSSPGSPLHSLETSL
UniProt P08574: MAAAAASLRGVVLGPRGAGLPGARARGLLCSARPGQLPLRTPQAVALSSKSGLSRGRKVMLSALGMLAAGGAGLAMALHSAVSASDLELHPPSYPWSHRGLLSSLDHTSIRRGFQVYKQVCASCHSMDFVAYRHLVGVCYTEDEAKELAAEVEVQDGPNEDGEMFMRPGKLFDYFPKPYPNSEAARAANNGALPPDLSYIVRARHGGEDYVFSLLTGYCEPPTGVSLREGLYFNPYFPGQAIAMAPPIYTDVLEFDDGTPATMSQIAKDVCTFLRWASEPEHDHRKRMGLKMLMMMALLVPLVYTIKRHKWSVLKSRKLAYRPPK
UniProt P11532, whole entry: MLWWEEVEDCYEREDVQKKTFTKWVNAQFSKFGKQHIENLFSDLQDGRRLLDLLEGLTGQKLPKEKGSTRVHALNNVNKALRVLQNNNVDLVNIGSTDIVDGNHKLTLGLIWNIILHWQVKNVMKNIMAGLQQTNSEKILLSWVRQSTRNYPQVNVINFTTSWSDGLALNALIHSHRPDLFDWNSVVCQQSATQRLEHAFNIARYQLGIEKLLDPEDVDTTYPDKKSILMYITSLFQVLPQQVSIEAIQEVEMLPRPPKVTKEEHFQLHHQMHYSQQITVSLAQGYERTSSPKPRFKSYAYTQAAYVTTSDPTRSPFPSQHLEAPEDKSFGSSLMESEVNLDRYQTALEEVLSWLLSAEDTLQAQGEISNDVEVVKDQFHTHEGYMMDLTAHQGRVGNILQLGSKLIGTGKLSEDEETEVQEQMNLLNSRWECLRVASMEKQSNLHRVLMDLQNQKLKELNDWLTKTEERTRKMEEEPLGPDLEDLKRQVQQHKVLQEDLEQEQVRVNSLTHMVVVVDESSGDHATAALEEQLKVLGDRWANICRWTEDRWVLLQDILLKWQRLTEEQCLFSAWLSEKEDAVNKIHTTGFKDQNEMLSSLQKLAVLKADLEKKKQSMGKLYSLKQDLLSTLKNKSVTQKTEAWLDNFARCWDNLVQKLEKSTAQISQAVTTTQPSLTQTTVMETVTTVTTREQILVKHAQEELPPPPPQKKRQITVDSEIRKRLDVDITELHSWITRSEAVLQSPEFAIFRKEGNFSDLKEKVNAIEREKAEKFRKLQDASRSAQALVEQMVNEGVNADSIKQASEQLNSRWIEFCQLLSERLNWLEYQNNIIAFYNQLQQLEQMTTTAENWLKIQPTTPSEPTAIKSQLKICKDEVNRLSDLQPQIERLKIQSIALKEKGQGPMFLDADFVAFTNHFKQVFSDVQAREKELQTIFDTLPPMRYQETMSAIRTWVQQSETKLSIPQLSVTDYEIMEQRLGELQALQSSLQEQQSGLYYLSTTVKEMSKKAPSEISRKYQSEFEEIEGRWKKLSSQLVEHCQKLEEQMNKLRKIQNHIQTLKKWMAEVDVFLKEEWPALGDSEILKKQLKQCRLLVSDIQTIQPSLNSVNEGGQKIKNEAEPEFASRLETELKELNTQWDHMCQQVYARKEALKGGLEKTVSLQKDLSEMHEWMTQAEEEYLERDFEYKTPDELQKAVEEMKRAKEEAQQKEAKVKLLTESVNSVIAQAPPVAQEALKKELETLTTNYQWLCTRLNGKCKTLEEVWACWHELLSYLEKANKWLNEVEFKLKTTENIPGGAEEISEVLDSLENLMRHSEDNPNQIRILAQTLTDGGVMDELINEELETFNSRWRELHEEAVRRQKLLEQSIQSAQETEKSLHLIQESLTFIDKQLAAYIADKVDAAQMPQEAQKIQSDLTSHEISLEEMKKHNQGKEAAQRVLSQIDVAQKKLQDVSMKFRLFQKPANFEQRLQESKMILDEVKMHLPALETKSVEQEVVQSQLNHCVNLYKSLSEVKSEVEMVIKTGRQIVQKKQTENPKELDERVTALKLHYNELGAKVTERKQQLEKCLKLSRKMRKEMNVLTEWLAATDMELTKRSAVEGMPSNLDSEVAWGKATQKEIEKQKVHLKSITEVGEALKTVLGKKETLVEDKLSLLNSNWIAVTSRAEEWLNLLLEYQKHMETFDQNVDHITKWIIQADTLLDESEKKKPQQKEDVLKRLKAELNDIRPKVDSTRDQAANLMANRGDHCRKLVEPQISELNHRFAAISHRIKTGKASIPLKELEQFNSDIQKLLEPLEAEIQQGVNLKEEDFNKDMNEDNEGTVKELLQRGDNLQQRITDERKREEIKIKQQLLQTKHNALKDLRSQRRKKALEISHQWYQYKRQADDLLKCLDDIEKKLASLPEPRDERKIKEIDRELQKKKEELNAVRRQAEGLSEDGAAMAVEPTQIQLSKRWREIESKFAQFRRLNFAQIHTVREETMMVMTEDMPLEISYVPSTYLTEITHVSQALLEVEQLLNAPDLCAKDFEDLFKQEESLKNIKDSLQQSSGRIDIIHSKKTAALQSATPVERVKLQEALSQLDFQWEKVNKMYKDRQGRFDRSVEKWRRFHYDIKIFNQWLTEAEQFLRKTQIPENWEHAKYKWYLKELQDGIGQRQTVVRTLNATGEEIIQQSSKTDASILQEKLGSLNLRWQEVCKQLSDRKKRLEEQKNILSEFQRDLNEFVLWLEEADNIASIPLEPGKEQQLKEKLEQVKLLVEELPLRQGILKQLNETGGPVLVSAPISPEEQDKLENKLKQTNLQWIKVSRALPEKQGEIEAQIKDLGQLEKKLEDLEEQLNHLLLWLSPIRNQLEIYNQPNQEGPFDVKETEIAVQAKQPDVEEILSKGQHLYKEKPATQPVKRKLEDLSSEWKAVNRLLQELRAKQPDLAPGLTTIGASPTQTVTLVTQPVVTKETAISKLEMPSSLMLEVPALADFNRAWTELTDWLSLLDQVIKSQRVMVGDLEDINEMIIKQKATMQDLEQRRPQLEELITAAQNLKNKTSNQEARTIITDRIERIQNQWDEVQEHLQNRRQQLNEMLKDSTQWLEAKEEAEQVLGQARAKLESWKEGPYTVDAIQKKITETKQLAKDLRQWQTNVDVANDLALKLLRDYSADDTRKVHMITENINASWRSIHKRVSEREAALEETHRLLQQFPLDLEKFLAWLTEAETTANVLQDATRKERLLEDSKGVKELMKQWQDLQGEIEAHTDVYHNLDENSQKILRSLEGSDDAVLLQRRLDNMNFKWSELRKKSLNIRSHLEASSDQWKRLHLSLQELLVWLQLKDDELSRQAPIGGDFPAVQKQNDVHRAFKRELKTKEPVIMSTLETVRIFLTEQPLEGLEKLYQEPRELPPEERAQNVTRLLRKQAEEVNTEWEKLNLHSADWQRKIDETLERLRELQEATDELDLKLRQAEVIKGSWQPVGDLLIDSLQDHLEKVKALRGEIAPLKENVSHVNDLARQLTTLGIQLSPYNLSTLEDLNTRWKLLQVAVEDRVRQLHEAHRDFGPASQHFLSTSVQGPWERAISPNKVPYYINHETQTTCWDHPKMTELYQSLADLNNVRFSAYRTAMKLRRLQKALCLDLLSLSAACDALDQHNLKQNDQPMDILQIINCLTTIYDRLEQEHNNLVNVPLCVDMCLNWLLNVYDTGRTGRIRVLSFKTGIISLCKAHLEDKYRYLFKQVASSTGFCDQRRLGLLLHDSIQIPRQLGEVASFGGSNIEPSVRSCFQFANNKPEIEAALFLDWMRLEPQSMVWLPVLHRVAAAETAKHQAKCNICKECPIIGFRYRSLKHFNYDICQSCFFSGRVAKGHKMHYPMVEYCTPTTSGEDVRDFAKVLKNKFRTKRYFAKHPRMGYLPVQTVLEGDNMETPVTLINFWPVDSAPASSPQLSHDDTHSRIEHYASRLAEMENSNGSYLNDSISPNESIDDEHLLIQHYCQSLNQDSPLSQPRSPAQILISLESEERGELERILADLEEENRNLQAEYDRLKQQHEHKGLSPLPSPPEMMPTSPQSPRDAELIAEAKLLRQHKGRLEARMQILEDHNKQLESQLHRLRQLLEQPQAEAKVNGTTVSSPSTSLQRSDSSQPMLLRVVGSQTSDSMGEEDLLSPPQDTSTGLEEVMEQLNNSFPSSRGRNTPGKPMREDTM
UniProt P11940, whole entry: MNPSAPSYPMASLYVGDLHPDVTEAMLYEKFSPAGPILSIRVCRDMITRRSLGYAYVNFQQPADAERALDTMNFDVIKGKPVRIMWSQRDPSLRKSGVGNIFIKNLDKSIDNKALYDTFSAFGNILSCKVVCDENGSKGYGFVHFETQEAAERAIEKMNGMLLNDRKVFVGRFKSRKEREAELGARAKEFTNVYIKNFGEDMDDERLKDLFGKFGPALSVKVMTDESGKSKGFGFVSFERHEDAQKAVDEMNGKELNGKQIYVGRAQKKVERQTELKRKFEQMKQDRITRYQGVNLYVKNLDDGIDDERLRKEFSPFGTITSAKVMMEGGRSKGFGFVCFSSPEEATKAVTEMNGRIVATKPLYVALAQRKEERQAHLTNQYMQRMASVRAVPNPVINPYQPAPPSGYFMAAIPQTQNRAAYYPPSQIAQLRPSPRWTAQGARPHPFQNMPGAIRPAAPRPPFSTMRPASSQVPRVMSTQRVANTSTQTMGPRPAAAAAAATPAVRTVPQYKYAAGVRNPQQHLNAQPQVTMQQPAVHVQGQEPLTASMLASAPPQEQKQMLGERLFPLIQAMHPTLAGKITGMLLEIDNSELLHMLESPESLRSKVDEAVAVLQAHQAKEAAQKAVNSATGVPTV
UniProt P07311: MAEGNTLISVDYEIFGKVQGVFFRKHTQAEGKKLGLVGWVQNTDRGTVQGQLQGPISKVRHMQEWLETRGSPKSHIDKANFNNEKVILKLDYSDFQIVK
UniProt P09960: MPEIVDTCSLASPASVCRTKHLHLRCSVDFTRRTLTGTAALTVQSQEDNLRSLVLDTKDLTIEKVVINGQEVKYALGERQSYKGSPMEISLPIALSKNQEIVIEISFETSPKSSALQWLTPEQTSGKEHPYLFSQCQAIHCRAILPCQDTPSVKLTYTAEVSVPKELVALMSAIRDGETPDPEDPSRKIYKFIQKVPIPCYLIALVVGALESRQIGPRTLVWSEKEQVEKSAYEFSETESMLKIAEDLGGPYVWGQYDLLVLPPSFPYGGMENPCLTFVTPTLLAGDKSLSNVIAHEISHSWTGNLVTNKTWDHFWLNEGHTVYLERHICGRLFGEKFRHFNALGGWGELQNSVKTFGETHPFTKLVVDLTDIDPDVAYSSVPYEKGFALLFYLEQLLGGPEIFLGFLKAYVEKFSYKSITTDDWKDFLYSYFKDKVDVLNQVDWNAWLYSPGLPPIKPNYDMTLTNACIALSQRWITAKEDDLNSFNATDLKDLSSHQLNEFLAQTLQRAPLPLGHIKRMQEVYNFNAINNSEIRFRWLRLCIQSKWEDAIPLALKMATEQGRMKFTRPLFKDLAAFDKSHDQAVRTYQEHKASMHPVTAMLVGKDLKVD

Compound: CCc1cnccc1C(=O)Nc1cc2c(cc1F)NC(=O)CC2
Assay: melting temperature shift (DMSO Tm minus MBE1-treated Tm) in cellular thermal proteome profiling; higher = less thermal stabilization by MBE1 (negative = stabilized by MBE1)
Conditions: A375

Row | Target | melting temperature shift (MBE1 concentration: 100 nM) | melting temperature shift (MBE1 concentration: 1 uM)
1 | HSPD1 (UniProt P10809) | -0.366 °C | 0.0488 °C
2 | UniProt P08582 | -1.47 °C | 1.19 °C
3 | UniProt P10070 | 0.861 °C | -1.25 °C
4 | UniProt P17535 | – | -3.96 °C
5 | COX5B (UniProt P10606) | – | -3.12 °C
6 | UQCRH (UniProt P07919) | – | -5.44 °C
7 | UROS (UniProt P10746) | – | -0.202 °C
8 | ENG (UniProt P17813) | -3.59 °C | 2.03 °C
9 | PTPN1 (UniProt P18031) | -0.414 °C | -0.616 °C
10 | EPRS (UniProt P07814) | -0.616 °C | -0.0423 °C
11 | TOP1 (UniProt P11387) | -0.173 °C | -0.0641 °C
12 | UniProt P17544 | 0.00671 °C | 0.898 °C
13 | UBTF (UniProt P17480) | -0.199 °C | -0.288 °C
14 | TCP1 (UniProt P17987) | -0.782 °C | -0.0671 °C
15 | CTSD (UniProt P07339) | -1.71 °C | -0.383 °C
16 | ESD (UniProt P10768) | -0.318 °C | -0.16 °C
17 | CAPN2 (UniProt P17655) | -0.916 °C | -0.684 °C
18 | SP1 (UniProt P08047) | -1.18 °C | 0.128 °C
19 | ATP2B1 (UniProt P20020) | -1.13 °C | 0.691 °C
20 | UQCRB (UniProt P14927) | -1.36 °C | -1.76 °C
21 | RPS2 (UniProt P15880) | -0.946 °C | 0.934 °C
22 | UniProt P16220 | 2.07 °C | -2.06 °C
23 | PEPD (UniProt P12955) | -1.28 °C | -0.44 °C

Row | Target | melting temperature shift (MBE1 concentration: 100 nM) | melting temperature shift (MBE1 concentration: 1 uM)
24 | ATF6 (UniProt P18850) | -1.84 °C | -1.45 °C
25 | UniProt P20265 | -0.448 °C | -0.73 °C
26 | UniProt P17405 | 1 °C | 0.61 °C
27 | UniProt P17066 | -2.41 °C | -1.21 °C
28 | UniProt P15907 | -0.698 °C | 1.01 °C
29 | UniProt P17010 | 0.179 °C | -2.13 °C
30 | UniProt P15336 | -1.47 °C | 1.25 °C
31 | CYC1 (UniProt P08574) | -1.51 °C | -1.42 °C
32 | HSP90B1 (UniProt P14625) | -0.965 °C | -0.183 °C
33 | G6PD (UniProt P11413) | -0.127 °C | -0.409 °C
34 | JUP (UniProt P14923) | -1.31 °C | 2.21 °C
35 | UniProt P18440 | -1.09 °C | 0.047 °C
36 | ACADM (UniProt P11310) | -0.788 °C | -0.416 °C
37 | HK1 (UniProt P19367) | -0.282 °C | 0.0997 °C
38 | P4HB (UniProt P07237) | -1.67 °C | -0.513 °C
39 | UniProt P18433 | 0.543 °C | 0.324 °C
40 | TROVE2 (UniProt P10155) | -1.35 °C | -0.162 °C
41 | ITGA5 (UniProt P08648) | -6.16 °C | 0.301 °C
42 | RALA (UniProt P11233) | -2.89 °C | -2.37 °C
43 | IGF1R (UniProt P08069) | -0.0916 °C | -0.403 °C
44 | LDHB (UniProt P07195) | -0.723 °C | -0.914 °C
45 | UniProt P15882 | -0.434 °C | -0.177 °C
46 | RPS17 (UniProt P08708) | -0.281 °C | 0.25 °C

Row | Target | melting temperature shift (MBE1 concentration: 100 nM) | melting temperature shift (MBE1 concentration: 1 uM)
47 | P0DMU7 (UniProt P0DMU8) | -1.13 °C | -3.07 °C
48 | ERCC2 (UniProt P18074) | -1.34 °C | 0.154 °C
49 | HNRNPA1 (UniProt P09651) | -0.208 °C | -0.202 °C
50 | DMD (UniProt P11532) | -1.12 °C | 1.01 °C
51 | HMOX1 (UniProt P09601) | -0.181 °C | 0.0604 °C
52 | PC (UniProt P11498) | 0.971 °C | 0.531 °C
53 | PPP3CB (UniProt P16298) | -1.55 °C | 0.107 °C
54 | ABCB1 (UniProt P08183) | -0.837 °C | -0.678 °C
55 | UniProt P13164 | -2.17 °C | 0.569 °C
56 | PSMC3 (UniProt P17980) | -0.657 °C | 0.412 °C
57 | RPL17 (UniProt P18621) | -0.513 °C | 0.879 °C
58 | ACADS (UniProt P16219) | 0.27 °C | -1.36 °C
59 | ACTN1 (UniProt P12814) | -1.12 °C | -1.09 °C
60 | UniProt P07947 | 1.04 °C | 1.1 °C
61 | UniProt P09104 | -2.44 °C | -3.13 °C
62 | BCR (UniProt P11274) | 0.861 °C | 0.238 °C
63 | POU2F1 (UniProt P14859) | -0.00611 °C | -0.415 °C
64 | UniProt P10114 | -2.62 °C | 0.552 °C
65 | CCNA2 (UniProt P20248) | -2.6 °C | 0.366 °C
66 | NFKB1 (UniProt P19838) | -0.16 °C | -0.0894 °C
67 | PRPS2 (UniProt P11908) | -0.563 °C | 0.55 °C
68 | PABPC1 (UniProt P11940) | -0.0244 °C | -0.232 °C
69 | LYN (UniProt P07948) | 0.598 °C | 1.09 °C

In another format: results already given.

| Row | Target | melting temperature shift (MBE1 concentration: 100 nM) | melting temperature shift (MBE1 concentration: 1 uM) |
| --- | --- | --- | --- |
| 51 | HMOX1 (UniProt P09601) | -0.181 °C | 0.0604 °C |
| 52 | PC (UniProt P11498) | 0.971 °C | 0.531 °C |
| 53 | PPP3CB (UniProt P16298) | -1.55 °C | 0.107 °C |
| 54 | ABCB1 (UniProt P08183) | -0.837 °C | -0.678 °C |
| 55 | UniProt P13164 | -2.17 °C | 0.569 °C |
| 56 | PSMC3 (UniProt P17980) | -0.657 °C | 0.412 °C |
| 57 | RPL17 (UniProt P18621) | -0.513 °C | 0.879 °C |

Later entries

Row | Target | melting temperature shift (MBE1 concentration: 100 nM) | melting temperature shift (MBE1 concentration: 1 uM)
70 | VCL (UniProt P18206) | -1.36 °C | -1.56 °C
71 | POLA1 (UniProt P09884) | -1.22 °C | -1.37 °C
72 | PLS3 (UniProt P13797) | -0.476 °C | 0.00671 °C
73 | ANXA2 (UniProt P07355) | -0.302 °C | -0.0402 °C
74 | UniProt P19525 | -0.847 °C | -0.288 °C
75 | IMPDH2 (UniProt P12268) | -0.0604 °C | 0.303 °C
76 | UniProt P10588 | 0.281 °C | 0.501 °C
77 | UniProt P11217 | -0.651 °C | 0.409 °C
78 | HNRNPC (UniProt P07910) | 0.354 °C | -0.464 °C
79 | UniProt P12694 | 0.134 °C | 0.592 °C
80 | ACYP1 (UniProt P07311) | -0.429 °C | -0.912 °C
81 | SNRPB2 (UniProt P08579) | -0.704 °C | -0.57 °C
82 | GNAO1 (UniProt P09471) | -0.116 °C | 0.299 °C
83 | ZNF24 (UniProt P17028) | 0.483 °C | -1.18 °C
84 | APRT (UniProt P07741) | -1.04 °C | -0.666 °C
85 | DBT (UniProt P11182) | 0.194 °C | 0.305 °C
86 | TUBB (UniProt P07437) | -1.32 °C | 0.8 °C
87 | LTA4H (UniProt P09960) | -1.05 °C | -0.529 °C
88 | CPM (UniProt P14384) | 8.19 °C | 6.6 °C
89 | RCC1 (UniProt P18754) | -0.528 °C | 0.448 °C
90 | TPT1 (UniProt P13693) | -0.651 °C | -0.905 °C
91 | PDHA1 (UniProt P08559) | 1.8 °C | 1.07 °C
